Several values for one entry are separate records, joined by “and”; a condition that tells them apart may be missing. Equal values may be shown once. Where a name gives a salt, the structure may show the parent alone. ± gives the standard deviation of the averaged measurements. This is one part of the list. Part of the spread comes from offsets between plates or batches.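 Culture-activated primary human stellate myofibroblasts, where regained lipid droplets signal inactivation. Value: share of Hoechst-counted cells above a per-plate Bodipy cutoff, in duplicate wells, with DMSO negative and nortriptyline positive controls on each plate. Hits: a control-normalized score above the plate's top-tenth-percentile nortriptyline wells, or one of a plate's three best wells. Final well concentrations are not given.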

37 compounds from the supplement of paper PMC9135407 can be followed below.

The assay deals with primary human hepatic stellate cells (donor 1). The assay is described as follows: percent Bodipy-positive cells; higher = more lipid droplet accumulation. The note with it: 48 h.
Where [1] appears, read: library stock concentration: 10 mM.
[2] abbreviates: library stock concentration: 3.33 mM.
[3] abbreviates: library stock concentration: 6 mM.

For the compound `O=c1[nH]c2cc(Cl)ccc2c(O)c1-c1cccc(Oc2ccccc2)c1`, the “percent Bodipy-positive cells” value under setting [1] was 19.8% and 6.88%.

On to `Cc1ccc(C)c(OCCCC(C)(C)C(=O)O)c1` [Gemfibrozil], for which the “percent Bodipy-positive cells” value was 29.5 ± 4.7%. The “percent Bodipy-positive cells” value under setting [2] turned out to be 8.81 ± 2%. Also, the “percent Bodipy-positive cells” value (library stock concentration: 8 mM) was 7.38% and 3.29%. The “percent Bodipy-positive cells” value under setting [1] is 18% and 16%.

For `Cc1ccc(C)c(OCCCC(C)(C)C(=O)O)c1`, the “percent Bodipy-positive cells” value under setting [1] amounted to 26.9 ± 4.2%.

`C=CCN1CCc2c(cc(O)c(O)c2Cl)C(c2ccccc2)C1` (stereo not given): under setting [1], the “percent Bodipy-positive cells” value was determined as 55.4 ± 8.6%.

Regarding `CCC(CC)CNc1cc(C(=O)NCCN(C)C)cc(S(=O)(=O)Nc2ccc(OC)cc2)c1`, under setting [1], the “percent Bodipy-positive cells” value was found to be 96.9 ± 2.8%.

Consider `CC(C)(C)c1cc(NC(=O)Nc2ccc(-c3cn4c(n3)sc3cc(OCCN5CCOCC5)ccc34)cc2)no1` [Quizartinib (AC220)], for which the “percent Bodipy-positive cells” value under setting [1] was 82.8 ± 2.9%.

As to `C[C@H]1COC2(CCN(c3nc(=O)c4cc(C(F)(F)F)cc([N+](=O)[O-])c4s3)CC2)O1` (racemic) [BTZ043 Racemate], the “percent Bodipy-positive cells” value worked out at 14.2 ± 8.9% under setting [2] and 15.5 ± 4.3% under setting [1].

With `CCCCCCCCCCCCCC=CC(O)C(CO)NC(=O)CCCCCCCCCCCCCCCCCCCCCCC` (stereo not given) [Lignoceric Ceramide], where the note is “library stock concentration: 1 mM”, the “percent Bodipy-positive cells” value was 7.49 ± 4.7%.

`COC(=O)[C@@H](N)Cc1ccc(O)c(O)c1` [L-3,4-Dihydroxyphenylalanine methyl ester hydrochloride]: the “percent Bodipy-positive cells” value under setting [1] was 35.6 ± 7.4%.

For `COc1ccc2c(c1)c(CC(=O)O)c(C)n2Cc1ccc(Cl)cc1` [1-(4-Chlorobenzyl)-5-methoxy-2-methylindole-3-acetic acid], the “percent Bodipy-positive cells” value under setting [1] is 29.7 ± 0.49%.

As to `C[C@]12CCC(=O)C=C1C=C[C@@H]1[C@@H]2CC[C@@]2(C)[C@H]1CC[C@@]21CCC(=O)O1` [Canrenone], the “percent Bodipy-positive cells” value (library stock concentration: 5.9 mM) was 8.03% and 16.5%; the “percent Bodipy-positive cells” value under setting [1] was found to be 35.9 ± 3%.

Take `CCCCOc1cc(C(=O)NCCN(CC)CC)c2ccccc2n1.Cl` [Dibucaine HCl]: the “percent Bodipy-positive cells” value under setting [1] came to 92.4 ± 1.5%.

As for `CC1(C)CC(=O)c2c(C(F)(F)F)nn(-c3ccc(C(N)=O)c(N[C@H]4CC[C@H](OC(=O)CN)CC4)c3)c2C1`, under setting [2], the “percent Bodipy-positive cells” value stood at 74.9 ± 4.4%.

For the compound `CC1(C)[C@@H](O)CC[C@]2(C)[C@H]3C(=O)C=C4[C@@H]5C[C@@](C)(C(=O)O)CC[C@]5(C)CC[C@@]4(C)[C@]3(C)CC[C@@H]12` [Enoxolone], the “percent Bodipy-positive cells” value is 18.2 ± 7.8% under setting [2]; 13.8% and 24.4% under setting [1].

As to `CC(N)(Cc1ccc(O)cc1)C(=O)O` (racemic) [DL-alpha-Methyl-p-tyrosine], the “percent Bodipy-positive cells” value under setting [1] turned out to be 64.6 ± 10%.

Take `O=C(NCc1cccc(O)c1)Nc1nc(-c2ccncc2)cs1`: the “percent Bodipy-positive cells” value under setting [2] came out at 82.7 ± 11%.

With `O=C1c2ccccc2-c2nc3nnnn3nc21` [PDK1/Akt/Flt Dual Pathway Inhibitor], under setting [2], the “percent Bodipy-positive cells” value is 98.412 ± 0.036%.

Consider `COc1cc(C(=O)NC2CCN(C)CC2)ccc1Nc1ncc2c(n1)N(C1CCCC1)CC(F)(F)C(=O)N2C`, for which the “percent Bodipy-positive cells” value runs as follows: under setting [2], 74.6 ± 3.8%; under setting [1], 97.4 ± 2.1%.

Regarding `COC(=O)CCc1ccc(OCC(O)CNC(C)C)cc1` (stereo not given) [Esmolol], for the setting “library stock concentration: 6.8 mM”, the “percent Bodipy-positive cells” value is 6.47 ± 1.3%.

`COC(=O)CCc1ccc(OCC(O)CNC(C)C)cc1` (stereo not given): the “percent Bodipy-positive cells” value under setting [1] came out at 9.597 ± 0.064%.

Consider `COC(=O)CCc1ccc(OCC(O)CNC(C)C)cc1` (stereo not given) [Esmolol HCl], for which the “percent Bodipy-positive cells” value under setting [2] worked out at 10.9 ± 0.32% and the “percent Bodipy-positive cells” value under setting [1] was found to be 23.8 ± 5.1%.

For `COCCOC(=O)C1=C(C)NC(C)=C(C(=O)OC(C)C)C1c1cccc([N+](=O)[O-])c1` (stereo not given) [Nimodipine], the “percent Bodipy-positive cells” value amounted to 9.41 ± 1.8%. Besides, under setting [2], the “percent Bodipy-positive cells” value came to 26.5 ± 0.96%. The “percent Bodipy-positive cells” value (library stock concentration: 4.8 mM) is 11.7% and 12.7%. For the same compound, the “percent Bodipy-positive cells” value (library stock concentration: 12 mM) was determined as 20.1 ± 4.3%.

As to `COCCOC(=O)C1=C(C)NC(C)=C(C(=O)OC(C)C)C1c1cccc([N+](=O)[O-])c1` (stereo not given), the “percent Bodipy-positive cells” value under setting [1] is 19.1 ± 0.88%.

Turning to `NCCS` [Mercaptamine hydrochloride], the “percent Bodipy-positive cells” value under setting [1] came out at 52.5 ± 3.5%.

With `NCCS` [Cysteamine hydrochloride], the “percent Bodipy-positive cells” value under setting [1] worked out at 26.4 ± 8.8%.

For the compound `NCCS` [Cysteamine HCl], the “percent Bodipy-positive cells” value reads like this: under setting [2], 7.44 ± 4.8%; under setting [1], 25.8 ± 11%.

As for `COc1c(C)c2c(c(O)c1C/C=C(\C)CCC(=O)OCCN1CCOCC1)C(=O)OC2` [Mycophenolate Mofetil], the “percent Bodipy-positive cells” value reads like this: under setting [2], 12.1 ± 1.8%; under setting [1], 7.37 ± 3.1%.

Take `CN1C(C(=O)Nc2ccccn2)=C(O)c2ccccc2S1(=O)=O` [Piroxicam]: the “percent Bodipy-positive cells” value was 36.9 ± 1.8%. Further, the “percent Bodipy-positive cells” value under setting [2] came out at 12.5 ± 2.6%. Further, the “percent Bodipy-positive cells” value under setting [3] was 7.64% and 14.5%. Besides, under “library stock concentration: 15.1 mM”, the “percent Bodipy-positive cells” value came to 13.1 ± 2.3%.

Regarding `CNCC[C@H](Oc1cccc2ccccc12)c1cccs1.Cl` [Duloxetine hydrochloride], the “percent Bodipy-positive cells” value under setting [3] was 96.5 ± 2%.

Regarding `CC1(C)S[C@@H]2[C@H](NC(=O)[C@H](N)c3ccccc3)C(=O)N2[C@H]1C(=O)OC1OC(=O)c2ccccc21` (stereo not given in full) [Talampicillin hydrochloride], the “percent Bodipy-positive cells” value was found to be 5 ± 0.95%.

On to `O=C(O)c1ccc(-n2nc(-c3ccccc3O)nc2-c2ccccc2O)cc1` [Deferasirox], for which the “percent Bodipy-positive cells” value reads like this: under setting [2], 10.5 ± 0.75%; under setting [1], 21 ± 6.5%.

For `CC(=O)OCOC(c1cc([N+](=O)[O-])ccc1Oc1ccc(Br)cc1)P(=O)(OCOC(C)=O)OCOC(C)=O` (stereo not given), for the setting “library stock concentration: 8.1 mM”, the “percent Bodipy-positive cells” value turned out to be 88.714 ± 0.025%.

Regarding `NC(=O)OCC(O)COc1ccc(Cl)cc1` (stereo not given) [Chlorphensin carbamate], the “percent Bodipy-positive cells” value turned out to be 31.3 ± 17%.

Take `COc1cc(/C=C(\C#N)C(=O)c2ccc(O)c(O)c2)cc(I)c1O` [I-OMe-Tyrphostin AG 538]: under setting [1], the “percent Bodipy-positive cells” value was 22.2 ± 1.7%.

`O=C(O)c1cc2cccc([N+](=O)[O-])c2[nH]1`: the “percent Bodipy-positive cells” value is 26.5 ± 3.8% under setting [2] and 31.1 ± 3.6% under setting [1].

As for `COc1ccc(CCc2nc3cc(-c4c(C)noc4C)ccc3n2C[C@H](C)N2CCOCC2)cc1Cl`, the “percent Bodipy-positive cells” value under setting [2] came out at 45.5 ± 10% and the “percent Bodipy-positive cells” value under setting [1] worked out at 64 ± 4.9%.

With `Cc1cnc(-c2cnc(NCCNc3ccc(C#N)cn3)nc2-c2ccc(Cl)cc2Cl)[nH]1`, the “percent Bodipy-positive cells” value runs as follows: (library stock concentration: 80 uM) 22.2 ± 5.6%; (library stock concentration: 400 uM) 9.89 ± 2.9%; (library stock concentration: 2 mM) 29.1 ± 1.1%; under setting [2], 24.8 ± 1.8%; under setting [1], 81.9 ± 2.1%.
